Results published in PubChem BioAssay AID248 (DTP/NCI, 2004).
The list shows only some results of the screen, not a fair sample: it covers a few groups of compounds. Other doses and runs of a compound may be missing. T/C: endpoint of the treated group in % of that of the vehicle group. Where survival is the endpoint, the PubChem record calls one and a half times the control and up active, and a quarter to a half above the control has no call in these data; cut-offs in other NCI protocols can differ. Schedule codes are those of the source, read here as Q, the interval in days (D) or hours (H), X, the number of doses. Some T/C values are followed by the survivors on the day toxicity was checked, most often the fifth; where neither a count nor a note follows, no animal had died by that day. Some entries were tested several times; the results are listed from low to high.

Tested on: L1210 leukemia ip in BDF1 mice, survival T/C
Assay: NCI In Vivo Anticancer Drug Screen. Data for tumor model L1210 Leukemia (intraperitoneal) in B6D2F1 (BDF1) mice
Conditions: T/C endpoint: median survival time, vehicle: saline, higher T/C = longer survival

SMILES: COc1ccc(O)c2c(=O)c3c(OC)cc4c(c3oc12)[C@@H]1C=CO[C@@H]1O4
- T/C (dose: 4.0 mg/kg/injection, schedule: Q03HX016 (ip)): 117 % of control
- T/C (dose: 4.0 mg/kg/injection, schedule: Q03HX024 (ip)): 137 % of control
- T/C (dose: 8.0 mg/kg/injection, schedule: Q01DX009 (ip), evaluated on day 30): 126 and 150 % of control
- T/C (dose: 8.0 mg/kg/injection, schedule: Q01DX009 (ip), evaluated on day 60): 130 % of control
- T/C (dose: 8.0 mg/kg/injection, schedule: Q01DX009 (sc)): 111 % of control [9 of 10 alive]
- T/C (dose: 8.0 mg/kg/injection, schedule: Q03HX008 (ip)): 121 % of control
- T/C (dose: 8.0 mg/kg/injection, schedule: Q03HX016 (ip)): 133 % of control
- T/C (dose: 8.0 mg/kg/injection, schedule: Q03HX024 (ip)): 148 % of control
- T/C (dose: 16.0 mg/kg/injection, schedule: Q01DX009 (ip), evaluated on day 30): 152 and 164 % of control
- T/C (dose: 16.0 mg/kg/injection, schedule: Q01DX009 (ip), evaluated on day 60): 137 % of control
- T/C (dose: 16.0 mg/kg/injection, schedule: Q01DX009 (oral)): 124 % of control
- T/C (dose: 16.0 mg/kg/injection, schedule: Q01DX009 (sc)): 107 % of control
- T/C (dose: 16.0 mg/kg/injection, schedule: Q03HX008 (ip)): 124 % of control
- T/C (dose: 16.0 mg/kg/injection, schedule: Q03HX016 (ip)): 133 % of control
- T/C (dose: 16.0 mg/kg/injection, schedule: Q03HX024 (ip)): 144 % of control
- T/C (dose: 16.0 mg/kg/injection, schedule: Q04DX003 (ip)): 103 % of control
- T/C (dose: 32.0 mg/kg/injection, schedule: Q01DX001 (ip)): 114 % of control
- T/C (dose: 32.0 mg/kg/injection, schedule: Q01DX001 (oral)): 108 % of control
- T/C (dose: 32.0 mg/kg/injection, schedule: Q01DX001 (sc)): 101 % of control
- T/C (dose: 32.0 mg/kg/injection, schedule: Q01DX009 (ip), evaluated on day 30): 136 and 192 % of control
- T/C (dose: 32.0 mg/kg/injection, schedule: Q01DX009 (ip), evaluated on day 60): 145 % of control
- T/C (dose: 32.0 mg/kg/injection, schedule: Q01DX009 (oral)): 123 % of control
- T/C (dose: 32.0 mg/kg/injection, schedule: Q01DX009 (sc)): 122 % of control [9 of 10 alive]
- T/C (dose: 32.0 mg/kg/injection, schedule: Q03HX008 (ip)): 143 % of control
- T/C (dose: 32.0 mg/kg/injection, schedule: Q03HX016 (ip)): 158 % of control
- T/C (dose: 32.0 mg/kg/injection, schedule: Q03HX024 (ip)): 108 % of control [9 of 10 alive]
- T/C (dose: 32.0 mg/kg/injection, schedule: Q04DX003 (ip)): 121 % of control
- T/C (dose: 32.0 mg/kg/injection, schedule: Q08DX002 (ip)): 108 % of control
- T/C (dose: 64.0 mg/kg/injection, schedule: Q01DX001 (ip)): 124 % of control
- T/C (dose: 64.0 mg/kg/injection, schedule: Q01DX001 (oral)): 105 % of control
- T/C (dose: 64.0 mg/kg/injection, schedule: Q01DX001 (sc)): 109 % of control
- T/C (dose: 64.0 mg/kg/injection, schedule: Q01DX009 (ip), evaluated on day 30): 152 and 157 % of control [5 of 6 alive]
- T/C (dose: 64.0 mg/kg/injection, schedule: Q01DX009 (ip), evaluated on day 60): 121 % of control
- T/C (dose: 64.0 mg/kg/injection, schedule: Q01DX009 (oral)): 131 % of control
- T/C (dose: 64.0 mg/kg/injection, schedule: Q01DX009 (sc)): 121 % of control
- T/C (dose: 64.0 mg/kg/injection, schedule: Q03HX008 (ip)): 131 % of control [9 of 10 alive]
- T/C (dose: 64.0 mg/kg/injection, schedule: Q03HX016 (ip)): 98 % of control [9 of 10 alive]
- T/C (dose: 64.0 mg/kg/injection, schedule: Q04DX003 (ip)): 126 % of control
- T/C (dose: 64.0 mg/kg/injection, schedule: Q08DX002 (ip)): 114 % of control
- T/C (dose: 128.0 mg/kg/injection, schedule: Q01DX001 (ip)): 136 % of control
- T/C (dose: 128.0 mg/kg/injection, schedule: Q01DX001 (oral)): 104 % of control
- T/C (dose: 128.0 mg/kg/injection, schedule: Q01DX001 (sc)): 119 % of control
- T/C (dose: 128.0 mg/kg/injection, schedule: Q01DX009 (oral)): 149 % of control [9 of 10 alive]
- T/C (dose: 128.0 mg/kg/injection, schedule: Q01DX009 (sc)): 143 % of control
- T/C (dose: 128.0 mg/kg/injection, schedule: Q04DX003 (ip)): 136 % of control
- T/C (dose: 128.0 mg/kg/injection, schedule: Q08DX002 (ip)): 122 % of control
- T/C (dose: 256.0 mg/kg/injection, schedule: Q01DX001 (ip)): 147 % of control
- T/C (dose: 256.0 mg/kg/injection, schedule: Q01DX001 (oral)): 103 % of control
- T/C (dose: 256.0 mg/kg/injection, schedule: Q01DX001 (sc)): 108 % of control
- T/C (dose: 256.0 mg/kg/injection, schedule: Q01DX009 (oral)): 139 % of control
- T/C (dose: 256.0 mg/kg/injection, schedule: Q04DX003 (ip)): 114 % of control
- T/C (dose: 256.0 mg/kg/injection, schedule: Q08DX002 (ip)): 147 % of control
- T/C (dose: 512.0 mg/kg/injection, schedule: Q01DX001 (ip)): 158 % of control [9 of 10 alive]
- T/C (dose: 512.0 mg/kg/injection, schedule: Q01DX001 (oral)): 110 % of control
- T/C (dose: 512.0 mg/kg/injection, schedule: Q01DX001 (sc)): 104 % of control
- T/C (dose: 512.0 mg/kg/injection, schedule: Q08DX002 (ip)): 144 % of control
